{
  "source": "PubChem BioAssay AID493014",
  "about": "(National Center for Advancing Translational Sciences (NCATS), 2011)",
  "note": "In all, about 340,000 compounds went through this assay and about 170 (0.05%) were called active. This list was built around the results that the source calls inconclusive (neither active nor inactive); the mix of calls is not that of the screen. Calls follow the shape of the dose curve; as a rule, active = well fitted inhibition curve with a large enough effect in the signal ratio, with a control signal flat (not every such curve was filed as active); inconclusive = small, poorly fitted or top-dose-only effect, or effect the other way, or a change in a side signal; inactive = flat fitted curve, though single readings scatter; the % refers to the signal ratio. Potencies of inconclusive entries are doubtful fits and often do not repeat. Potency is read from the fitted curve at half-maximal effect.",
  "data": [
    {"experiment": "qHTS Assay to Find Inhibitors of Chronic Active B-Cell Receptor Signaling;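 as to activity change, negative = inhibition: plate controls were basal doxycycline-induced cells for no effect and cells given 10 µM MG132 for full effect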", "settings": "ABC-DLBCL IkBa-CBG/CBR reporter, luminescence ratio (green luciferase fused to IkBa over red control in TMD8 lymphoma cells), 4 h; activity change, negative = inhibition: at 46.1 µM (top of the series)", "procedure,_shortened": "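Cell line TMD8 (human ABC DLBCL), stably expressing tet-inducible CBG68-IkBa fusion and CBR; IMDM/0.5% FBS; cpd up to 46 uM; dox induction, 4 h, 37C/5% CO2; dual luminescence; green/red ratio; MG132 control.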", "values": [
      {"smiles": "C[C@H]1COc2c(C3(N)CC3)c(F)cc3c(=O)c(C(=O)O)cn1c23", "activity change, negative = inhibition": "inconclusive: -7.83%"},
      {"smiles": "CCOC(=O)c1nn(-c2ccc(Cl)cc2)c2nc(Nc3ccccc3)cc(=O)n12", "activity change, negative = inhibition": "inconclusive: 2.59%"},
      {"smiles": "COc1ccc2[nH]cc(C(=O)CCl)c2c1", "activity change, negative = inhibition": "inconclusive: 8.63%"},
      {"smiles": "Cc1cc(NC(=O)CSc2nc(C(C)(C)C)nc3ccccc23)no1", "activity change, negative = inhibition": "inactive: 1.45%"},
      {"smiles": "COc1ccc(-n2cnc3cc([N+](=O)[O-])ccc32)cc1", "activity change, negative = inhibition": "inconclusive: 6.05%"},
      {"smiles": "COc1ccc(C(=O)/C=C(\\C)Nc2ccc3c(c2)OCO3)cc1", "activity change, negative = inhibition": "inconclusive: 9.51%"},
      {"smiles": "Cc1ccc(S(=O)(=O)NCCC(=O)NC2CCC(C)CC2)cc1", "note": "(configuration not stated)", "activity change, negative = inhibition": "inconclusive: 0.189%"},
      {"smiles": "O=C(c1ccncc1)N(c1ccc2oc3c(c2c1)CCCC3)S(=O)(=O)c1cccc([N+](=O)[O-])c1", "activity change, negative = inhibition": "inactive: -4.23%"},
      {"smiles": "COc1ccc(OC)c(NC2=NC3(CCCCC3)N=C(N)N2)c1", "activity change, negative = inhibition": "inactive: -0.55%"},
      {"smiles": "Cc1sc(NC(=O)c2ccccc2)c(C(c2ccccn2)N2CCN(CCO)CC2)c1C", "note": "(configuration not stated)", "activity change, negative = inhibition": "inconclusive: 0.46%"},
      {"smiles": "C/C(N)=C(/C#N)C(=O)COC(=O)CCS(=O)(=O)c1ccccc1", "activity change, negative = inhibition": "inconclusive: 6.85%"},
      {"smiles": "CCOC(=O)c1c(NC(=O)c2ccoc2C)sc(C)c1C", "activity change, negative = inhibition": "inconclusive: 5.28%"},
      {"smiles": "Cc1ccc(C2=NN3C(C(=O)c4ccccc4)Oc4ccccc4C3C2)cc1", "note": "(configuration not stated)", "Potency": "inconclusive: 20.6 µM [falling, single point]"},
      {"smiles": "COc1ccc(C(=O)C2CCCN(Cc3cn(C)nc3-c3ccccc3)C2)cc1F", "note": "(configuration not stated)", "Potency": "inconclusive: 35.5 µM [falling, single point]"},
      {"smiles": "O=C(CSc1nnc(CNC(=O)c2cccs2)o1)Nc1ccc2c(c1)OCO2", "activity change, negative = inhibition": "inactive: -12%"},
      {"smiles": "COC(=O)C(NC(=O)CCc1c(C)nc2ncnn2c1C)C(C)C", "note": "(configuration not stated)", "Potency": "inconclusive: 12.6 µM [falling, partial curve, poor fit]"},
      {"smiles": "O=C(Nc1ccccc1C(=O)O)c1ccc2c(c1)C(=O)N(c1cccc([N+](=O)[O-])c1)C2=O", "activity change, negative = inhibition": "inconclusive: -2.04%"},
      {"smiles": "S=c1[nH]nc(-c2cc(-c3ccccc3)n[nH]2)n1/N=C/c1c(Cl)cccc1Cl", "activity change, negative = inhibition": "inconclusive: -1.7%"},
      {"smiles": "COc1ccc(/C=N/NC(=O)c2ccccc2OCc2ccccc2)c(OC)c1", "Potency": "inconclusive: 5.01 µM [falling, partial curve]"},
      {"smiles": "O=C(Nc1ccc(OC(F)F)c(Cl)c1)Nc1ccc2c(c1)OCO2", "activity change, negative = inhibition": "inactive: -0.0022%"},
      {"smiles": "CCc1cc(C(=O)N2CCN(c3ccccn3)CC2)sc1C", "activity change, negative = inhibition": "inconclusive: 8%"},
      {"smiles": "CCCCN1C(=O)/C(=C/C=C2/CC(C)(C)CN2C)SC1=S", "activity change, negative = inhibition": "inconclusive: 1.16%"},
      {"smiles": "COCCNC(=O)Cc1c(C)c2c(cc(C)c3c(C(C)(C)C)coc32)oc1=O", "Potency": "inconclusive: 35.5 µM [falling, single point]"},
      {"smiles": "CSc1ccc2c(c1)C(N1CCN(C)CC1)Cc1ccccc1S2", "note": "(configuration not stated)", "Potency": "inconclusive: 22.4 µM [falling, single point]"},
      {"smiles": "Cc1ccc(S(=O)(=O)N2[C@@H](c3ccc(C(C)(C)C)cc3)C(C(=O)O)=CC[C@H]2c2cccc(Cl)c2)cc1", "activity change, negative = inhibition": "inconclusive: -16%"},
      {"smiles": "Cc1ccc2nc3c(cc(C(=O)NCc4ccco4)c(=N)n3C3CCCC3)c(=O)n2c1", "activity change, negative = inhibition": "inactive: -3.88%"},
      {"smiles": "Cc1ccc(Nc2cc(C)nc3ccc(C)cc23)cc1", "activity change, negative = inhibition": "inconclusive: -2.4%"},
      {"smiles": "Cn1c(=O)c2c(SCC(=O)N3CCCc4ccccc43)nc(CC(C)(C)C)nc2n(C)c1=O", "activity change, negative = inhibition": "inconclusive: -13.1%"},
      {"smiles": "CCOC(=O)C(NC(=O)c1cccnc1)(Nc1cccc(C)n1)C(F)(F)F", "note": "(configuration not stated)", "activity change, negative = inhibition": "inconclusive: -19%"},
      {"smiles": "Cc1n[nH]c(C)c1CCCCOc1ccc([N+](=O)[O-])cc1", "activity change, negative = inhibition": "inactive: 0.281%"},
      {"smiles": "COc1cccc(N2CCN(c3ccc([N+](=O)[O-])cn3)CC2)c1", "activity change, negative = inhibition": "inconclusive: -0.172%"},
      {"smiles": "Cc1nc(-c2ccc(C)c(S(=O)(=O)N3CCC(C(=O)NCc4ccc(Cl)cc4)CC3)c2)no1", "activity change, negative = inhibition": "inactive: -4.84%"},
      {"smiles": "Cc1c(C(=O)NCc2cccs2)oc2ccc(Br)cc12", "Potency": "inconclusive: 2.59 µM [rising, partial curve]"},
      {"smiles": "CC(C)c1ccccc1OCC(=O)Nc1ccc2[nH]ncc2c1", "activity change, negative = inhibition": "inactive: -14.3%"},
      {"smiles": "O=C(N/N=C(\\CC(=O)c1cccs1)C(F)(F)F)c1cccnc1", "Potency": "inconclusive: 20 µM [falling, partial curve]"},
      {"smiles": "Cc1ccc(NC(=O)CCC(=O)NNS(=O)(=O)c2ccc(Cl)cc2)cc1C", "activity change, negative = inhibition": "inconclusive: 7.46%"},
      {"smiles": "O=C(NCc1nnnn1-c1ccc(F)c(F)c1)c1ccc(S(=O)(=O)N2CCOCC2)cc1", "activity change, negative = inhibition": "inconclusive: -9.3%"},
      {"smiles": "Fc1cccc(Cc2noc(CN3CCOCC3)n2)c1", "activity change, negative = inhibition": "inconclusive: 6.48%"},
      {"smiles": "Cc1c(C(=O)OC2CCCC2)[nH]c2c1C(=O)CC(c1ccco1)C2", "note": "(configuration not stated)", "activity change, negative = inhibition": "inconclusive: 0.8%"},
      {"smiles": "COc1cc2c(cc1OC)CN(C(=O)CSc1n[nH]c(N)n1)CC2", "activity change, negative = inhibition": "inconclusive: -9.33%"},
      {"smiles": "O=C(O)CCC(=O)Nc1ccc(-c2nnc(-c3ccco3)o2)cc1", "activity change, negative = inhibition": "inactive: -0.725%"},
      {"smiles": "O=C(CSc1ncccn1)N/N=C/c1cccc(OC2CSC2)c1", "activity change, negative = inhibition": "inactive: -1.37%"},
      {"smiles": "Cc1cccc(NC(=O)CN(C)S(=O)(=O)c2cccs2)c1", "Potency": "inconclusive: 2.91 µM [falling, full curve, poor fit]"},
      {"smiles": "Cc1cccc(C)c1NC(=O)CN1CCN(C(=O)c2ccc(OCc3cn4ccccc4n3)cc2)CC1", "activity change, negative = inhibition": "inactive: 1.49%"},
      {"smiles": "Cc1cccc(C)c1NC(=O)CNC(=O)C(C)N1CCN(c2cccc(Cl)c2)CC1", "note": "(configuration not stated)", "activity change, negative = inhibition": "inconclusive: -6.18%"},
      {"smiles": "COc1ccc(OC)c(CN2CCN(C(=O)CCC(=O)c3cccs3)CC2)c1", "activity change, negative = inhibition": "inconclusive: 5.01%"},
      {"smiles": "Cc1ccc(C(=O)CSC2=C(C#N)C(c3ccco3)C3=C(CCCC3=O)N2)cc1", "note": "(configuration not stated)", "activity change, negative = inhibition": "inconclusive: -6.52%"},
      {"smiles": "O=C(NC(c1ccc(Cl)cc1)c1c(O)ccc2ccccc12)c1ccccc1", "note": "(configuration not stated)", "Potency": "inconclusive: 14.6 µM [rising, partial curve, poor fit]"},
      {"smiles": "O=C(NC1CCCC1)c1cccc2c1C(=O)c1ccc(N3CCCCC3)cc1S2(=O)=O", "Potency": "inconclusive: 1.3 µM [falling, partial curve, poor fit]"},
      {"smiles": "CC1=CC(C)(C)Nc2ccc(C)cc21", "activity change, negative = inhibition": "inactive: 0.467%"},
      {"smiles": "COc1ccc(C(=O)Nn2cnc3ccccc3c2=O)c(OC)c1", "activity change, negative = inhibition": "inactive: 3.9%"},
      {"smiles": "Cc1nc2ccc([N+](=O)[O-])cc2c(=O)n1Cc1ccc(Cl)cc1", "activity change, negative = inhibition": "inactive: 2.07%"}
    ]}
  ]
}
